This note sets out measurements from doi:10.1101/2025.08.04.668477.

Protein sequences, listed by entry. Tags and fused reporters are not part of them. Lines headed by an entry give the natural chain unless they say otherwise; changes in a name come on top.
UniProt P10275, whole entry, looked up, stated change not applied: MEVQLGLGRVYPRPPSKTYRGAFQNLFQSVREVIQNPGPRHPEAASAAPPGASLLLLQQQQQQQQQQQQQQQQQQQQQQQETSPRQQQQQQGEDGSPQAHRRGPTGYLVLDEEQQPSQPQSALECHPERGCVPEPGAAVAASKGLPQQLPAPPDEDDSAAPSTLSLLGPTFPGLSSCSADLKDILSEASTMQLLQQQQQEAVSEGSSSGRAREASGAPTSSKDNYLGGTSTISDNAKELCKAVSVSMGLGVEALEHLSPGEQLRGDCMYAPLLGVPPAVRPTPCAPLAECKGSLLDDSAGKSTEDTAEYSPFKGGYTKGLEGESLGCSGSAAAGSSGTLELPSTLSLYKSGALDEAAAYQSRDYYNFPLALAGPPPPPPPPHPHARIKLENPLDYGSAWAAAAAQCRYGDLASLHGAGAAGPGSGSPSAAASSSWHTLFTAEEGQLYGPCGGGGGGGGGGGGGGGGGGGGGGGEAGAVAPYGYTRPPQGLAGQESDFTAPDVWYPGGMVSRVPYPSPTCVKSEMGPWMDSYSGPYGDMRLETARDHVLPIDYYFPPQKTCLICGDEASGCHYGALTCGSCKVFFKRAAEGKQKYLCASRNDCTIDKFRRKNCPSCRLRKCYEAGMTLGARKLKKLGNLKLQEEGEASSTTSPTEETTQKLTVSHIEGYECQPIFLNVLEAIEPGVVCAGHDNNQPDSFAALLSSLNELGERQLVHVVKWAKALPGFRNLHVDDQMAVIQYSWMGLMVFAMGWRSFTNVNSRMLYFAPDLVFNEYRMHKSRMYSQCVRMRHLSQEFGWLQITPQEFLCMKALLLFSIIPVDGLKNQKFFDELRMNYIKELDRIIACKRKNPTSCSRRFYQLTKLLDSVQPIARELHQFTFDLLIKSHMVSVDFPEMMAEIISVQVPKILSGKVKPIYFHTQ
UniProt Q09472, whole entry: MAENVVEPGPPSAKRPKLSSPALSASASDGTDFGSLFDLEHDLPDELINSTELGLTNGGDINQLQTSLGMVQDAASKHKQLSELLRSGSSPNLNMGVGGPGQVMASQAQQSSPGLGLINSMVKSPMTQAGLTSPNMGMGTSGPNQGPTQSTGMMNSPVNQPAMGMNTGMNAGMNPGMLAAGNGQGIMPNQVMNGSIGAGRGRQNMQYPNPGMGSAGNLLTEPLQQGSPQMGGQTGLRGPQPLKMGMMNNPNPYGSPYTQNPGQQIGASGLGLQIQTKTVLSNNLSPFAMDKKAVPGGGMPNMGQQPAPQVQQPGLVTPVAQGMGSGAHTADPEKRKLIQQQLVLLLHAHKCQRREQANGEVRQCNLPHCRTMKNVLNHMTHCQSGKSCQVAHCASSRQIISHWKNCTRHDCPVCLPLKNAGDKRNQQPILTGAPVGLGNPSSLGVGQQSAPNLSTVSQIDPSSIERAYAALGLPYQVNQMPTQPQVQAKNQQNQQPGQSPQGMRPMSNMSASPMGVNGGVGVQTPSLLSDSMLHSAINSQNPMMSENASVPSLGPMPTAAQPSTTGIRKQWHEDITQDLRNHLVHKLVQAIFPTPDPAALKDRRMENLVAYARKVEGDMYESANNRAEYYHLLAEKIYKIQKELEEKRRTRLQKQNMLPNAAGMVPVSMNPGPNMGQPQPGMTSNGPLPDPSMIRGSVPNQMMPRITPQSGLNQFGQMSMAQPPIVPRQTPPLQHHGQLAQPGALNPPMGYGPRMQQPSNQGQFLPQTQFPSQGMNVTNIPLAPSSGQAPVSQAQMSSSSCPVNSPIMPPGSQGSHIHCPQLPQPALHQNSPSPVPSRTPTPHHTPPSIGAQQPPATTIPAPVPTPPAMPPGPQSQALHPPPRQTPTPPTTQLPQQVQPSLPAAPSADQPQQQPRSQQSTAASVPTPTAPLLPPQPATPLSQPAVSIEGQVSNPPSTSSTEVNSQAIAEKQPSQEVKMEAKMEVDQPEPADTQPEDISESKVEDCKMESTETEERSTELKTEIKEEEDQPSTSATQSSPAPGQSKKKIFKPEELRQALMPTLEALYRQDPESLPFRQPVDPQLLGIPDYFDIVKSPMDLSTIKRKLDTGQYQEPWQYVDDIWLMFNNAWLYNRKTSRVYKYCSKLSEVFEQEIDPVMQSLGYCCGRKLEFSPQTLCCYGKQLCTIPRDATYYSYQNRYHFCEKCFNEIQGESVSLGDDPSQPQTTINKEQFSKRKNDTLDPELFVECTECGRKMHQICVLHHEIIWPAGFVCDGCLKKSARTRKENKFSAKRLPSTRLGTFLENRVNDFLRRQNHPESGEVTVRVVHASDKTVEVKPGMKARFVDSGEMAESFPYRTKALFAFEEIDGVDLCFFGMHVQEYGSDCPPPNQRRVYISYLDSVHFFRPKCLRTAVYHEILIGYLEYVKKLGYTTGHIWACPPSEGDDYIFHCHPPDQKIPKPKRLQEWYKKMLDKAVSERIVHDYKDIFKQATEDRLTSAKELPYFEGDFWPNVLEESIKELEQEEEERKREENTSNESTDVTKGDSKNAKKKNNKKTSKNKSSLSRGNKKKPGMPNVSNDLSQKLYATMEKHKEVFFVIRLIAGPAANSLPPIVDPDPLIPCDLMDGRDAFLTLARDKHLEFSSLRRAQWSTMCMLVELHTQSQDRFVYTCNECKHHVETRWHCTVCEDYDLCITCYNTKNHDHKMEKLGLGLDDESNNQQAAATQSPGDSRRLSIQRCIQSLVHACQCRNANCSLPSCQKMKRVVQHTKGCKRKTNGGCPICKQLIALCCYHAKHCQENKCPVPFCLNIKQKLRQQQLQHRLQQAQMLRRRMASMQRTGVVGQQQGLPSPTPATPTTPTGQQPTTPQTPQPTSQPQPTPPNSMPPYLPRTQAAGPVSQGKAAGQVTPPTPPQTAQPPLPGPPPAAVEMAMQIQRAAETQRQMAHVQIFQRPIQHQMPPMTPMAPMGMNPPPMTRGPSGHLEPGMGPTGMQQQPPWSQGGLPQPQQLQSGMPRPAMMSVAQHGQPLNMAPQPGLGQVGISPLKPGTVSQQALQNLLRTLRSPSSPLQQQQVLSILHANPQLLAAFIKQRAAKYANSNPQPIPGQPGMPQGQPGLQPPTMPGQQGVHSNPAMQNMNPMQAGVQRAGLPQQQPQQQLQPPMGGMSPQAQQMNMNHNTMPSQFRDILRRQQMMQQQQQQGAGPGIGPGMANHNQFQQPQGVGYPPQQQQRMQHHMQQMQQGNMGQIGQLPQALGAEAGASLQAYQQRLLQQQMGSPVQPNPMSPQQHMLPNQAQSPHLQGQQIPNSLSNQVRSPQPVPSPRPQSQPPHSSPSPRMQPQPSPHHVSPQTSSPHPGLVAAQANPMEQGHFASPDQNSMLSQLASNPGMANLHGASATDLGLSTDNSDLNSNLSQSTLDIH

Results are given in words; binding and its absence hold for the method and conditions named. In cells and extracts the contact can be indirect. Here binding means that the protein was enriched with, or labelled near, the bait; the list need not be complete.

One experiment addresses AR-V7 BioID bait (UniProt P10275). The experiment is described as follows: proximity labelling.
The target of the next experiment is p300 BioID bait (UniProt Q09472). The experiment is described as follows: proximity labelling.

As for “Yin Yang 1 (endogenous) (from UniProt P25490 1-414)”, the binding result with AR-V7 BioID bait and with p300 BioID bait was “binds” each time.
